Measured values as given in PubChem BioAssay AID2685 (National Center for Advancing Translational Sciences (NCATS), 2010).
This is one part of the list. Shown are side measurements of this screen, not its main read-out; they come without a call. Compounds called inactive in the main read-out are mostly missing here. Potencies come from curve fits of mixed quality, noted in brackets.

Assay: qHTS Assay for Lipid Storage Modulators in Drosophila S3 Cells;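 on cell number change: cells counted by Cell Tracker Red CMTPX staining in the red channel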
Conditions: BODIPY lipid droplet fluorescence, 18-24 h; for cell number change: measured here: cell count max response, cells fed with added oleic acid
Procedure, shortened: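 Drosophila S3 cells loaded with oleic acid (400 uM, as added) and compounds at several concentrations; lipid droplets imaged by 488-nm laser-scanning cytometry, 500–530 nm intensity and object ratio to cell channel. Percent activity normalized to 20 uM Triacsin C.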

[1] = measured here: lipid fluorescence (Fed channel) AC50, cells fed with added oleic acid
[2] = measured here: cell number channel AC50, cells fed with added oleic acid

Compound | cell number change [%] | AC50 [1] | AC50 [2]
CCOC(=O)C1=C(C)NC(=O)NC1c1ccc(C)o1 (centres undefined) | 2.78 | 0.164 µM [rising, full curve, poor fit] | 
CC(C)(C)c1ccc(OC(=O)c2ccccc2)cc1 | 13 | 29.1 µM [falling, single point] | 
Cc1cc(=O)oc2cc(OC(=O)CCN3C(=O)c4ccccc4C3=O)ccc12 | -22.9 |  | 
COc1ccc(Br)cc1C1Nc2cccc3cccc(c23)N1 | -43.8 | 29.1 µM [falling, single point] | 25.9 µM [falling, partial curve, poor fit]
CC(C)(C)c1ccc(C(=O)NC(=S)NCc2cccnc2)cc1 | -62.7 | 25.9 µM [falling, partial curve] | 18.4 µM [falling, partial curve]
CCN(CC)C(=O)CSc1nnc(-c2c[nH]c3ccccc23)o1 | -29.6 |  | 
O=S(=O)(Cc1ccccc1)c1cnc2ccccc2n1 | 22.1 | 1.3 µM [falling, partial curve] | 
O=C(c1ccc2ccccc2n1)N1CCN(Cc2c(F)cccc2Cl)CC1 | 22.9 |  | 3.66 µM [rising, full curve, poor fit]
COc1cccc(/C=C2\SC(=S)N(C(C)C(=O)NC3C=CS(=O)(=O)C3)C2=O)c1 (centres undefined) | 23.3 | 29.1 µM [falling, partial curve, poor fit] | 
CC1CCN(C(=O)C2CCN(S(=O)(=O)c3cccs3)CC2)CC1 | 1.8 |  | 
CC(OC(=O)CN1C(=O)NC2(CCCC2)C1=O)c1ccc(F)cc1 (centres undefined) | -11.3 |  | 0.231 µM [falling, full curve, poor fit]
CC(C)CC(=O)N1CCN(C(=O)c2ccco2)CC1 | -21.9 | 32.6 µM [falling, single point] | 
CC(C)c1ccccc1 | -46.6 | 25.9 µM [falling, single point] | 9.2 µM [falling, single point]
CNc1c(NS(=O)(=O)c2ccc(Cl)cc2)c(=O)oc2ccccc12 | 25.7 | 0.58 µM [rising, single point] | 
C/C(N)=C(/C#N)C(=O)COC(=O)CC1CCCC1 | 11.7 |  | 
COc1ccc2nc(Nc3ccccc3)sc2c1 | -31.9 | 0.00461 µM [falling, full curve, poor fit] | 0.0058 µM [falling, full curve, poor fit]
COc1ccc(N2CC(C(=O)Nc3c4c(nn3-c3ccccc3)CS(=O)(=O)C4)CC2=O)cc1 (centres undefined) | 19.3 | 32.6 µM [rising, partial curve, poor fit] | 

An excerpt of these results, as a markdown table:

| Compound | cell number change [%] | AC50 [1] | AC50 [2] |
| --- | --- | --- | --- |
| CNc1c(NS(=O)(=O)c2ccc(Cl)cc2)c(=O)oc2ccccc12 | 25.7 | 0.58 µM [rising, single point] |  |
| C/C(N)=C(/C#N)C(=O)COC(=O)CC1CCCC1 | 11.7 |  |  |
